From PubChem BioAssay AID248 (DTP/NCI, 2004)
The list is a part of this screen's results and no random one: it gathers tests that were run many times, whatever their T/C, doses with no T/C, and many T/C values between a quarter and a half above the control. Other doses and runs of a compound stand elsewhere. T/C: endpoint of the treated group in % of that of the vehicle group. Some entries give survivors of the animals treated and no T/C: the source holds a T/C of zero for them, seemingly a mark for toxic or unscored doses. Some survivor counts are full or nearly so, which does not show that the dose was tolerated: the source hardly ever lists a survival T/C far under the control, and the zero likely stands for such cases as well. Counts of survivors are from the toxicity check (mostly the fifth day) where no day follows; animals may have died later. Schedule codes are those of the source, taken here to give the interval after Q, in days (D) or hours (H), and the number of doses after X. Some entries hold several experiments; the results are listed from low to high. Some schedule codes hold Z or #, which are not explained here. For survival time, this PubChem deposit counts one and a half times the control or more as active, and values a quarter to a half above the control carry no call in these data; other NCI protocols may use other cut-offs. Some T/C values are followed by the survivors on the day toxicity was checked, most often the fifth; where none is given, no animal had died by that day.

Tested on: L1210 leukemia ip in BDF1 mice, survival T/C
Experiment: NCI In Vivo Anticancer Drug Screen. Data for tumor model L1210 Leukemia (intraperitoneal) in B6D2F1 (BDF1) mice
Conditions: T/C endpoint: mean survival time, higher T/C = longer survival
[1] = dose: 400.0 mg/kg/injection, schedule: Q04DX003 (ip), vehicle: Klucel (hydroxypropylcellulose) (HPC)
[2] = dose: 200.0 mg/kg/injection, schedule: Q01DX009 (ip), vehicle: saline with Tween-80
[3] = dose: 400.0 mg/kg/injection, schedule: Q01DX009 (ip), vehicle: saline with Tween-80

With `Clc1c(CBr)c(Cl)c(CBr)c(Cl)c1CBr` the survivor count (dose: 100.0 mg/kg/injection, schedule: Q01DX009 (ip), vehicle: Klucel (hydroxypropylcellulose) (HPC)) was 3 of 6, the survivor count (dose: 200.0 mg/kg/injection, schedule: Q04DX003 (ip), vehicle: Klucel (hydroxypropylcellulose) (HPC)) was 2 of 6 and the survivor count [1] was 0 of 6.

In the case of `O=C(COc1ccc(Cl)c(Cl)c1)NCc1ccc[n+](CC(=O)Nc2ccc(S(=O)(=O)F)cc2)c1`, the survivor count (dose: 400.0 mg/kg/injection, schedule: Q01DX009 (ip), vehicle: saline) is reported as 3 of 6.

With `CC[C@H](c1ccc(O)cc1)[C@@H](CC)c1ccc(O)cc1` the survivor count (dose: 500.0 mg/kg/injection, schedule: Q01DX010 (sc), vehicle: steroid suspending solution) was 3 of 6.

In the case of `O=C(O)CCc1nn(-c2ccccc2)c(=O)c2ccccc12`, the survivor count (dose: 400.0 mg/kg/injection, schedule: Q04DX002 (ip), vehicle: Klucel (hydroxypropylcellulose) (HPC)) is reported as 3 of 3.

With `C/C(Cc1ccccc1)=N\O` the survivor count [2] was 6 of 6.

For `CC[n+]1cccc(C#N)c1`, the survivor count (dose: 300.0 mg/kg/injection, schedule: Q04DX003 (ip), vehicle: saline) was 0 of 6.

For `NC1C(=O)NC(=O)NC1=S` (stereo not drawn), the survivor count (dose: 67.0 mg/kg/injection, schedule: Q01DX Z (ip), vehicle: methylcellulose (MC)) was 1 of 6 and the survivor count (dose: 100.0 mg/kg/injection, schedule: Q01DX Z (ip), vehicle: methylcellulose (MC)) was 1 of 6.

`Cc1ccc2cccc(CC(=O)NN)c2c1` was tested, and the survivor count (dose: 400.0 mg/kg/injection, schedule: Q01DX001 (ip), vehicle: saline with Tween-80) was 1 of 6 and the survivor count (dose: 400.0 mg/kg/injection, schedule: Q04DX002 (ip), vehicle: saline with Tween-80) was 0 of 6.

`N#CC1(C(O)c2ccccc2)C=Cc2ccccc2N1C(=O)c1ccccc1` (stereo not drawn) was tested, and the survivor count (dose: 200.0 mg/kg/injection, schedule: Q01DX001 (ip), vehicle: steroid suspending solution) was 6 of 6.

`CCOC(=O)c1ccc(NC(=O)Nc2nccs2)cc1` was tested, and the T/C [2] was 125 % of control [5 of 6 alive] and the survivor count [3] was 2 of 6.

In the case of `CC(C)NC(=O)c1ccc(/C=N/N(C)C)cc1`, the survivor count [1] is reported as 3 of 6.

In the case of `Cc1ccc(S(=O)(=O)Nc2ccc(-c3ccc(NS(=O)(=O)c4ccc(C)cc4)cc3)cc2)cc1`, the survivor count (dose: 25.0 mg/kg/injection, schedule: Q04DX002 (ip), vehicle: saline with Tween-80) is reported as 3 of 3 and the survivor count (dose: 200.0 mg/kg/injection, schedule: Q04DX002 (ip), vehicle: saline with Tween-80) is reported as 3 of 3.

`Nc1nc(N)c(C=Nc2ccc(I)cc2)c(Nc2ccc(I)cc2)n1` was tested, and the survivor count (dose: 50.0 mg/kg/injection, schedule: Q01DX001 (ip), vehicle: alcohol) was 4 of 4, the survivor count (dose: 100.0 mg/kg/injection, schedule: Q01DX001 (ip), vehicle: alcohol) was 4 of 4 and the survivor count (dose: 200.0 mg/kg/injection, schedule: Q01DX001 (ip), vehicle: alcohol) was 4 of 4.

In the case of `CN1CC(C(=O)N2CCCCC2)C=C2c3cccc4[nH]cc(c34)CC21` (stereo not drawn), the survivor count (dose: 100.0 mg/kg/injection, schedule: Q04DX003 (ip), vehicle: saline) is reported as 3 of 6, the survivor count (dose: 200.0 mg/kg/injection, schedule: Q04DX003 (ip), vehicle: saline) is reported as 0 of 6 and the survivor count (dose: 400.0 mg/kg/injection, schedule: Q04DX003 (ip), vehicle: saline) is reported as 0 of 6.

With `Cc1c(CCO)sc[n+]1Cc1ccccc1` the survivor count (dose: 400.0 mg/kg/injection, schedule: Q04DX002 (ip), vehicle: saline) was 1 of 3.

`c1ccc2cc(SCCCN3CCOCC3)ccc2c1` was tested, and the survivor count (dose: 400.0 mg/kg/injection, schedule: Q01DX009 (ip), vehicle: saline sonified) was 1 of 6.

For `CN1CCNC(=O)CC1`, the survivor count (dose: 400.0 mg/kg/injection, schedule: Q01DX009 (ip), vehicle: water) was 6 of 6.

`O=C(O)c1cc(S(=O)(=O)F)cc(S(=O)(=O)F)c1` was tested, and the survivor count [2] was 0 of 6 and the survivor count [3] was 0 of 6.

`CCCNC(=O)Oc1ccccc1C(=O)NCO` was tested, and the survivor count (dose: 400.0 mg/kg/injection, schedule: Q01DX009 (ip), vehicle: other) was 0 of 6.

`O=C1C(Cl)=C(N/N=c2/[nH][nH]/c(=N/NC3=C(Cl)C(=O)c4ccccc4C3=O)c3ccccc23)C(=O)c2ccccc21` was tested, and the survivor count (dose: 100.0 mg/kg/injection, schedule: Q01DX001 (ip), vehicle: carboxymethylcellulose (CMC)) was 1 of 4 and 2 of 4, the survivor count (dose: 200.0 mg/kg/injection, schedule: Q01DX001 (ip), vehicle: carboxymethylcellulose (CMC)) was 0 of 4 and the survivor count (dose: 400.0 mg/kg/injection, schedule: Q01DX001 (ip), vehicle: carboxymethylcellulose (CMC)) was 0 of 4.
